PubChem BioAssay AID504764 – Drosophila RNAi Screening Center – 2011
Purpose: 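Knock-downs that raise or lower a Notch target reporter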 (primary screen). Cell system: Drosophila Kc167 cells. Reagent: long dsRNA against Drosophila genes. Timing: about 5 days (4 days dsRNA, then 24 h after transfection). Conditions: transfection of constitutively active membrane-tethered Notch lacking the extracellular domain, read 24 h later. Detection: 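Light from a Notch-responsive E(spl)m3 luciferase reporter under active Notch, with control-promoter and no-Notch reporter wells to normalise; raw counts from paired wells a and b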. Direction: induced reporter light, run 1, well a and induced reporter light, run 1, well b: higher = more light from the Notch target reporter with active Notch; control promoter light, run 1, well a and control promoter light, run 1, well b: higher = more light from the viral control promoter (cell number, transfection, viability); uninduced reporter light, run 1, well a: higher = more light from the Notch target reporter without active Notch. Rule for the call: 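Wells with low control signal or poorly matching duplicates excluded; duplicates averaged; per source plate, z beyond ±2 for induced/control log2 ratio or beyond ±1.8 for induced/uninduced marks a hit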. Calls: active = modifier hit (raised or lowered Notch signal); inactive = not a hit.
The deposit covers about 22,000 reagents; this is a random part of those that have a named target and a result. Over the whole deposit, 403 (1.9%) were called active. 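Unnormalised raw counts per well; ratio z-scores behind the hit calls and whether each hit raises or lowers signal are not deposited.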 No sequences are given here. Not stated in the record: the amount of reagent.

The first 2 entries, to show the layout:
no.	target	amplicon	induced reporter light, run 1, well a	induced reporter light, run 1, well b	control promoter light, run 1, well a	control promoter light, run 1, well b	uninduced reporter light, run 1, well a	activity call
1	Spt7	DRSC19997	1.86e5	2.01e5	1.50e5	1.01e5	14550	inactive
2	Imp	DRSC18861	75025	1.10e5	1.12e5	93035	5955	inactive

Results, from the start:
no.	target	amplicon	induced reporter light, run 1, well a	induced reporter light, run 1, well b	control promoter light, run 1, well a	control promoter light, run 1, well b	uninduced reporter light, run 1, well a	activity call
1	Spt7	DRSC19997	1.86e5	2.01e5	1.50e5	1.01e5	14550	inactive
2	Imp	DRSC18861	75025	1.10e5	1.12e5	93035	5955	inactive
3	Imp	DRSC20255	1.33e5	1.17e5	1.76e5	1.70e5	9832	inactive
4	CG10918	DRSC20472	89380	83460	82435	1.14e5	10032	inactive
5	LTV1	DRSC05951	1.05e5	97295	1.04e5	89480	8020	inactive
6	tomboy20	DRSC14913	81750	65630	65145	50345	4560	inactive
7	Ccp84Ae	DRSC12590	94905	1.16e5	80745	61130	6728	inactive
8	wam	DRSC15171	1.50e5	1.63e5	1.89e5	1.77e5	13485	inactive
9	Acyp2	DRSC15336	2.34e5	2.09e5	2.09e5	2.15e5	17245	inactive
10	CG31245	DRSC15498	1.58e5	1.44e5	1.56e5	1.67e5	10945	inactive
11	CG15044	DRSC19620	91645	78775	98740	1.01e5	10955	inactive
12	CG18568	DRSC06768	1.34e5	1.29e5	1.37e5	1.36e5	12638	inactive
13	CNMaR	DRSC08992	76350	97120	1.67e5	1.66e5	7665	active
14	CNMaR	DRSC10224	1.53e5	1.44e5	2.16e5	1.58e5	5980	inactive
15	Uba1	DRSC07567	48350	56835	44225	43145	5788	inactive
16	CG3036	DRSC00260	1.04e5	98080	1.36e5	1.65e5	8515	inactive
17	CG3036	DRSC00562	1.86e5	1.84e5	2.02e5	1.94e5	15895	inactive
18	Hn	DRSC11184	1.07e5	1.06e5	64985	34640	9478	inactive
19	CG42542	DRSC15549	1.62e5	1.43e5	1.55e5	1.19e5	10880	inactive
20	CG9547	DRSC03260	1.47e5	1.42e5	1.46e5	1.44e5	12170	inactive
21	HSPBAP1	DRSC14567	1.67e5	1.26e5	1.77e5	1.72e5	12390	inactive
22	CG32829	DRSC00961	1.09e5	90300	1.32e5	1.28e5	7425	inactive
23	CG17029	DRSC10240	1.84e5	1.64e5	1.92e5	1.68e5	7005	inactive
24	odd	DRSC00832	7710	5075	9150	7700	2615	inactive
25	Ugt36F1	DRSC02601	47650	39340	48400	40240	3575	inactive
26	S-Lap2	DRSC10628	1.91e5	1.96e5	2.34e5	1.74e5	9978	inactive
27	MnM	DRSC08423	1.34e5	1.54e5	2.55e5	1.71e5	9865	inactive
28	Ir51a	DRSC06256	1.24e5	1.14e5	1.39e5	1.27e5	10210	inactive
29	betaTub65B	DRSC11393	2.28e5	2.48e5	3.41e5	2.36e5	12610	inactive
30	Pur-alpha	DRSC17166	1.68e5	1.64e5	2.29e5	2.76e5	13610	inactive
31	CG2574	DRSC19862	87665	85565	86965	1.24e5	5870	inactive
32	kat-60L1	DRSC12184	1.38e5	1.29e5	92470	78525	11575	inactive
33	CG44098	DRSC12214	1.63e5	1.06e5	1.15e5	85415	11815	inactive
34	CG44098	DRSC12327	37015	47180	46720	41950	3265	inactive
